Results as given in PubChem BioAssay AID1347076 (National Center for Advancing Translational Sciences (NCATS), 2019).
Among all 400,000 compounds or so, about 13,000 (3.2%) were called active. Inconclusive results, whose numbers are uncertain, are shown with a selection of clear calls. The call rests on the fitted dose curve; in most records, active means well fitted cell-killing curve with a large enough effect; inconclusive means small, poorly fitted or top-dose-only effect, or effect the other way; inactive means flat fitted curve, though single readings scatter. Where the call is inconclusive, the potency comes from a doubtful curve fit.
On the % scale 0 is the no-effect control and ±100 the full control effect; potency means the concentration at half of the fitted maximal effect.

Assay: qHTS assay for MDR1-selective chemotherapeutics: Primary screen using the drug-selected MDR subline cells KB-V1; further: nearly all actives have a fitted effect of over 60% in size
Conditions: KB-V1 MDR cells viability, CellTiter-Glo, 72 h; activity change, negative = cytotoxicity: at 46.1 µM (top of the series)
Procedure, shortened: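 Following 72 h at 37 degrees C with compound, KB-V1 cell viability was read by CellTiter-Glo luminescence, medium being phenol-red-free DMEM plus 10% FBS; concentration-response parameters came from normalized, curve-fitted qHTS data.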
With Cc1ccc(C(=O)Nc2nc(C(N)Cc3ccc(C(F)(F)F)cc3)cs2)cc1 (stereo unspecified) the Potency was “inactive”.
In the case of Cc1ccc(OCCOC(=O)Nc2ccccc2)cc1, the Potency is reported as inconclusive: 32.6 µM [cytotoxic, single point].
For COC(=O)c1ccccc1NC(=O)C1CCCO1 (stereo unspecified), the Potency was “inactive”.
With O=C(c1sc2ccccc2c1Cl)N(Cc1ccccc1Cl)C1CCS(=O)(=O)C1 (stereo unspecified) the Potency was active: 8.2 µM.
In the case of O=S(=O)(CCNCc1ccco1)NCc1ccccc1, the Potency is reported as “inactive”.
With CCN(CC(=O)Nc1sc2c(c1C#N)CCC(C)C2)Cc1nc2ccccc2c(=O)[nH]1 (stereo unspecified) the Potency was “inactive”.
With Cn1c(C(=O)N2CCN(c3ccc([N+](=O)[O-])cc3)CC2)cc2c(=O)[nH]c3ccccc3c21 the Potency was “inactive”.
With CCOc1ccc2nc(N3C(=O)CNC3=S)sc2c1 the Potency was inconclusive: 18.4 µM [cytotoxic, single point].
For CCOC(CNC(=O)C1CCN(S(=O)(=O)c2ccc3nc4c(c(C(=O)O)c3c2)CCCCC4)CC1)OCC, the Potency was inconclusive: 29.1 µM [rising, single point].
In the case of COc1ccc(NS(=O)(=O)c2cc(OC)ccc2NC(=O)c2cc(C)oc2C)cc1, the Potency is reported as inconclusive: 18.4 µM [cytotoxic, partial curve, poor fit].
With COc1ccc(S(=O)(=O)N(Cc2ccccc2)Cc2nc3ccccc3c(=O)[nH]2)cc1 the Potency was inconclusive: 18.4 µM [cytotoxic, single point].
In the case of C[C@H](CO)N1C[C@H](C)[C@@H](CN(C)C(=O)Nc2ccc(C(C)(C)C)cc2)OCc2cnnn2CCCC1=O, the Potency is reported as inconclusive: 29.1 µM [rising, single point].
With O=C(/C=C/c1cn(-c2ccccc2)nc1-c1ccc2c(c1)OCCO2)NCCO the Potency was “inactive”.
For COc1ccc(C(=O)c2coc3ccc(O)c(CN4CCOCC4)c23)cc1, the Potency was inconclusive: 4.11 µM [cytotoxic, full curve].
With CCOc1cc(/C=C/C(=O)c2ccc(C)cc2)ccc1OCC(=O)N(C)C the Potency was active: 14.6 µM.
With COCCn1c(-c2ccc(C)cc2)nc2c(c(=O)c3ccccc3n2C)c1=O the Potency was inconclusive: 2.59 µM [cytotoxic, full curve].
In the case of CC(=O)c1ccc(NC(=O)c2sc3nc(N4CCOCC4)c4c(c3c2N)CCCC4)cc1, the Potency is reported as “inactive”.
With CCOc1ccc(NC(=O)CCC(=O)NNC(=O)Nc2ccc(Cl)cc2)cc1 the Potency was “inactive”.
For COc1cccc(-c2cnc3c(NC=O)cc(-c4cccc(C(=O)N(C)C)c4)cn23)c1, the Potency was active: 23.1 µM.
For COc1cc(/C=C(\C#N)C(=O)Nc2ccc(C)cc2)ccc1OCc1cc(=O)n2nc(C)sc2n1, the Potency was inconclusive: 20.6 µM [rising, single point].
For CCOC(=O)C1CCCN(C(=O)c2ccc(C)c(NC(=O)C3=C(C)OCCS3)c2)C1 (stereo unspecified), the activity change, negative = cytotoxicity was inconclusive: -9.63%.
With COc1ccc(NC(=O)C2Cc3c(-c4cccc(C(C)=O)c4)ccnc3O2)cc1 (stereo unspecified) the Potency was inconclusive: 2.31 µM [cytotoxic, full curve].
For Cc1cc(C(=O)NC2CCCc3c2cnn3-c2cccc(C)c2C)c(C)o1 (stereo unspecified), the Potency was inconclusive: 16.4 µM [cytotoxic, partial curve, poor fit].
With COc1cccc(C(=O)Nc2cccc(-c3ccc(N4CCOCC4)nn3)c2)c1OC the Potency was inconclusive: 32.6 µM [cytotoxic, single point].
With COC(=O)c1cc(C(=O)c2ccc(Cl)cc2)n2c(=O)/c(=C\N(C)C)sc12 the activity change, negative = cytotoxicity was inconclusive: -35.1% [cytotoxic].
In the case of Cc1ccc(N/N=C(\C#N)C(N)=S)cc1C, the Potency is reported as inconclusive: 29.1 µM [cytotoxic, single point].
In the case of COC(=O)c1ccc(NC(=O)c2cc(=O)c3ccc(C)cc3o2)cc1, the Potency is reported as “inactive”.
For Fc1cccc(CNc2ncnc3cc(Cl)ccc23)c1F, the Potency was “inactive”.
With O=c1oc2ccc(Br)cc2cc1-c1csc(-c2ccccc2)n1 the Potency was inconclusive: 9.2 µM [rising, partial curve].
With Cc1ccc(CNC(=O)C2CC2c2ccccc2)cc1 (stereo unspecified) the Potency was inconclusive: 10.3 µM [cytotoxic, partial curve].
For CC[C@]1(C(=O)OC)[C@H]2C(=O)N(C)C(=O)[C@H]2[C@H]2CN=C(SCc3ccc(OC)cc3)N21, the Potency was “inactive”.
For CC(=O)c1ccc(N2CCN(S(=O)(=O)c3ccc4c(c3)CC(C)N4C(C)=O)CC2)cc1 (stereo unspecified), the Potency was active: 8.2 µM.
In the case of Cc1cc(Br)cn2c(Cc3ccsc3)c(C3CCCCC3)nc12, the Potency is reported as “inactive”.
With Fc1c(F)c(F)c(N/N=C/c2c[nH]c3ccccc23)c(F)c1F the Potency was “inactive”.
In the case of CN1CCN(C2Cc3cc(F)ccc3Sc3ccc(Cl)cc32)CC1 (stereo unspecified), the Potency is reported as “inactive”.
With CCC/C=C1/CCCOC(C(=O)NCc2ccccn2)(C(F)(F)F)C1 (stereo unspecified) the Potency was inconclusive: 1.84 µM [rising, single point].
With CN(C)CCCN(C(=O)c1ccc(Br)s1)c1nc2cc3c(cc2s1)OCO3 the Potency was inconclusive: 2.59 µM [cytotoxic, partial curve, poor fit].
In the case of CCN(CC(=O)Nc1ccc(OC)cc1)C(=O)C1CC(=O)N(Cc2ccccc2)C1 (stereo unspecified), the Potency is reported as “inactive”.
With CCCCn1c(=O)n(Cc2cccc(F)c2)c(=O)c2c1ncn2Cc1ccco1 the Potency was inconclusive: 11.6 µM [cytotoxic, partial curve].
With CCOC(=O)C1CCN(C(=O)c2cc(S(=O)(=O)N3CCc4ccccc43)ccc2OC)CC1 the Potency was inconclusive: 20.6 µM [cytotoxic, single point].
With Cn1nc(C(=O)NCCCN2CCCCC2)c2c1-c1ccccc1S(=O)(=O)C2 the Potency was “inactive”.
For Cc1cccc(NCC(=O)N/N=C\c2c[nH]c3ccccc23)c1, the Potency was inconclusive: 29.1 µM [cytotoxic, single point].
With COC(=O)C1=C(O)C2(C(=O)O)CC(C(=O)OC)=C(O)C(C(=O)O)(C1)C2 the Potency was “inactive”.
In the case of COc1ccccc1NS(=O)(=O)c1cc(N/C(=N/S(=O)(=O)c2ccccc2)c2ccc(F)cc2)ccc1Cl, the Potency is reported as “inactive”.
With CCOC(=O)c1[nH]nc2c1C(=O)N(CC)C2=O the Potency was inconclusive: 29.1 µM [rising, partial curve, poor fit].
For O=C(Nc1ccccc1)C1Cc2c(-c3ccc4c(c3)OCO4)ccnc2O1 (stereo unspecified), the Potency was “inactive”.
With CCOc1ccc(-c2c(C(=O)N/N=C/c3ccc(OC(C)C)cc3)nnn2-c2nonc2N)cc1 the Potency was inconclusive: 10.3 µM [cytotoxic, partial curve, poor fit].
In the case of O=C(NCCc1ccc(Cl)cc1)c1ccc(OCC2CCCO2)cc1 (stereo unspecified), the Potency is reported as inconclusive: 0.0259 µM [cytotoxic, full curve, poor fit].
In the case of Fc1ccc(-c2nc3c(Cl)cc(C(F)(F)F)cn3c2Cc2cccc(Cl)c2)cc1, the Potency is reported as “inactive”.
For O=C(NCC(c1cccnc1)N1CCc2ccccc2C1)C(=O)Nc1ccc(Cl)cc1 (stereo unspecified), the Potency was inconclusive: 4.11 µM [cytotoxic, full curve].
For O=C(Nc1ccc(F)cc1F)c1c(C(F)(F)F)ccnc1Oc1cccc(C(F)(F)F)c1, the activity change, negative = cytotoxicity was inconclusive: -30.4% [cytotoxic].
With CCOc1ccc(OCCCC(=O)N2CCN(S(=O)(=O)c3ccc(Cl)cc3)CC2)cc1 the Potency was inconclusive: 9.2 µM [cytotoxic, partial curve].
In the case of Cc1ccc(-c2nsc3c(N4CCC(C(N)=O)CC4)ncnc23)cc1, the Potency is reported as “inactive”.
In the case of CCOC(=O)Cc1c(C)c2ccc(N(CC)CC)cc2oc1=O, the Potency is reported as inconclusive: 7.31 µM [cytotoxic, partial curve, poor fit].
In the case of COc1cc(/C=N/n2c(SC)nnc(C(C)(C)C)c2=O)ccc1O, the Potency is reported as “inactive”.
For CCN1CCN(C(C(=O)NC2CCCC2)c2ccc(Cl)cc2)CC1 (stereo unspecified), the Potency was inconclusive: 23.1 µM [cytotoxic, partial curve].
In the case of COc1ccc(C(=O)N2CCN(C(=O)c3ccco3)CC2)cc1, the Potency is reported as “inactive”.
With CC(=O)c1ccc(N/N=C(/C(N)=O)C2=NC(C)(C)Cc3ccccc32)cc1 the Potency was active: 11.6 µM.
In the case of Cc1cc(/C=N/NC(=O)c2cccc([N+](=O)[O-])c2)c(C)n1-c1ccccc1, the Potency is reported as inconclusive: 32.6 µM [cytotoxic, single point].
With COc1ccccc1N1CCN(C(=O)COc2cc(C)cc3oc(=O)cc(C)c23)CC1 the Potency was inconclusive: 16.4 µM [cytotoxic, single point].
With CC(C)c1ccc(NC(=O)c2cccc3c2C(=O)N(C2CCCCC2)C3)cc1 the Potency was “inactive”.
In the case of Cc1c2ccncc2cc2c1[nH]c1ccccc12, the Potency is reported as inconclusive: 23.1 µM [cytotoxic, partial curve, poor fit].
In the case of CCOC(=O)c1sc(NC(=O)c2cccs2)cc1C, the Potency is reported as inconclusive: 13 µM [cytotoxic, partial curve, poor fit].
For CC(=O)c1ccc2noc(-c3ccccc3)c2c1, the Potency was inconclusive: 18.4 µM [cytotoxic, single point].
For O=C(CSS(=O)(=O)O)N1CCN(C(=O)c2ccoc2)CC1, the activity change, negative = cytotoxicity was inconclusive: 35.5%.
In the case of O=C(Nc1ncc2c(n1)CC(c1ccco1)CC2=O)c1ccc(Cl)cc1 (stereo unspecified), the Potency is reported as inconclusive: 20.6 µM [cytotoxic, partial curve, poor fit].
For Cc1cccc(C(=O)NC(=S)Nc2ccccc2C(F)(F)F)c1, the Potency was inconclusive: 18.4 µM [cytotoxic, partial curve, poor fit].
With Cc1cc(N2CCN(C(C(=O)NC3CCCC3)C(C)C)CC2)c2ccccc2n1 (stereo unspecified) the Potency was inconclusive: 7.31 µM [cytotoxic, partial curve].
With CC(=O)c1cccc(NC(=O)c2c(N3CCCC3=O)c3cc(F)ccc3n2C)c1 the Potency was inconclusive: 20.6 µM [cytotoxic, partial curve].
With COc1ccccc1N=NNc1ccccc1OC the Potency was “inactive”.
In the case of O=C1Nc2cc(C(=O)N3CCC(N4CCCCC4)CC3)ccc2S/C1=C\c1ccccc1, the Potency is reported as inconclusive: 23.1 µM [rising, single point].
